Test results taken from the supplement of paper PMC12819154, “High-throughput peptide-centric local stability assay extends protein–ligand identification to membrane proteins, tissues and bacteria” (Nature Structural & Molecular Biology, 2025).
The other results are listed elsewhere or left out. Most values lie at the level of the controls, where differences are scatter.

The chains behind the UniProt entries cited, without tags or fusion partners. Where a name states a change or a piece, a line headed by the entry shows the natural chain unless it says otherwise.
UniProt Q8VBX6: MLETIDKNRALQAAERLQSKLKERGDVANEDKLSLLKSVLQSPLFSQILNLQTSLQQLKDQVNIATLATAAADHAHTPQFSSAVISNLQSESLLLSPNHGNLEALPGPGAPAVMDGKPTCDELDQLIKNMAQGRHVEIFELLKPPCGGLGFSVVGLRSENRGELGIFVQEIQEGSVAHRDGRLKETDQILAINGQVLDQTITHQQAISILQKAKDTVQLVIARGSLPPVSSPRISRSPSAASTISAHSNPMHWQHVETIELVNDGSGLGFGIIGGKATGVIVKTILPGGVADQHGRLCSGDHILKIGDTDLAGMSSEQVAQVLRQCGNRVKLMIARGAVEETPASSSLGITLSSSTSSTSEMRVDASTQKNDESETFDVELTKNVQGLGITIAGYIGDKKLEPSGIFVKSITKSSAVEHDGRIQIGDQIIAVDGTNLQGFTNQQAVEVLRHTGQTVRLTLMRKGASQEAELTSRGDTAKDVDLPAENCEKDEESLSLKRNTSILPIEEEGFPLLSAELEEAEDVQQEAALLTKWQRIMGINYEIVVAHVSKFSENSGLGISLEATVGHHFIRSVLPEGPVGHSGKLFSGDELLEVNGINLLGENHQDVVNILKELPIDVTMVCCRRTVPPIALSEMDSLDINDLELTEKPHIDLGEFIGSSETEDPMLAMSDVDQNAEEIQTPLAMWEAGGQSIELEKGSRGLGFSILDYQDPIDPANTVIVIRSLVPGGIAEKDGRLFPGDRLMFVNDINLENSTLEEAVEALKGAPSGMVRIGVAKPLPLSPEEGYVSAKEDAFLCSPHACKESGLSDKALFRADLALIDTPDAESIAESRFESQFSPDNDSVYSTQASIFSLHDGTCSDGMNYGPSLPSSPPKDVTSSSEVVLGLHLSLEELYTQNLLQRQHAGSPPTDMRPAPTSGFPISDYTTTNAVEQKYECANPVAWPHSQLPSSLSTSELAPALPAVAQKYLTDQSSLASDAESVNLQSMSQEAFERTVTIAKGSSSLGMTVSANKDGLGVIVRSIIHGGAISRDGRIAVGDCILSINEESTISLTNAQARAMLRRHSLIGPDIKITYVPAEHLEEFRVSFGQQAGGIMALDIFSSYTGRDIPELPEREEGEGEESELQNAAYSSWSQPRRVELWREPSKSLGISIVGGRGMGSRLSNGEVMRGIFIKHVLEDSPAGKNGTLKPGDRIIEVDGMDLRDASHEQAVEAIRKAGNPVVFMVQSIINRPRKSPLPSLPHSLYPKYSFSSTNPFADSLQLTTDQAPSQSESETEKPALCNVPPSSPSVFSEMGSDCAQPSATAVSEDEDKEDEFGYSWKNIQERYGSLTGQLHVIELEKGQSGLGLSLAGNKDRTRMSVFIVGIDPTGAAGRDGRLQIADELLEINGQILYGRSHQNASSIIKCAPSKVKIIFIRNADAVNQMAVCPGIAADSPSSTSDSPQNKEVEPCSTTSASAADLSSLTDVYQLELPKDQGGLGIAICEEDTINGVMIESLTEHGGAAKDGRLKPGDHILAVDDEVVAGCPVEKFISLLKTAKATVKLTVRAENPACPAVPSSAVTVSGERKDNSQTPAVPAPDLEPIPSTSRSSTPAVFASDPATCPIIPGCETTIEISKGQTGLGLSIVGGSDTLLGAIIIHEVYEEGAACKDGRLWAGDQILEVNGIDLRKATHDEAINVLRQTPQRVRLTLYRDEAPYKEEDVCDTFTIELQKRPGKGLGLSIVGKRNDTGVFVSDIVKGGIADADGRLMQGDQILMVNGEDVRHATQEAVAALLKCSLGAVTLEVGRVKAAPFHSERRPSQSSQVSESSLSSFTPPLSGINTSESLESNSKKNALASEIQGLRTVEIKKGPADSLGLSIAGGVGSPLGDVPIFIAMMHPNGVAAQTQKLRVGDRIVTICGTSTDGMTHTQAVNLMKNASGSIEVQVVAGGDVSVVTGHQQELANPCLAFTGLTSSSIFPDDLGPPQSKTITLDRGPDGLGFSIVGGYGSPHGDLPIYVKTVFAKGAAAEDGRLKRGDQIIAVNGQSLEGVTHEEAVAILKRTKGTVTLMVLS
UniProt Q8R519: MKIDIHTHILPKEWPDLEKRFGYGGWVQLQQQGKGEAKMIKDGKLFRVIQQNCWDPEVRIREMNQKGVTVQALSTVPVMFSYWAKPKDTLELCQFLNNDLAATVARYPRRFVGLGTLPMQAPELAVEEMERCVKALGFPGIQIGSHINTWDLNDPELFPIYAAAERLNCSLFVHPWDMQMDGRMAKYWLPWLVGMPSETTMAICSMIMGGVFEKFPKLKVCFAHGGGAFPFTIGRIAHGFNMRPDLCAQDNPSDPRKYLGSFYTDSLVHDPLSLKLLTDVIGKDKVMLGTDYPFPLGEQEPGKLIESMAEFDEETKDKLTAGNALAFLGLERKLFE
UniProt Q8VEH8: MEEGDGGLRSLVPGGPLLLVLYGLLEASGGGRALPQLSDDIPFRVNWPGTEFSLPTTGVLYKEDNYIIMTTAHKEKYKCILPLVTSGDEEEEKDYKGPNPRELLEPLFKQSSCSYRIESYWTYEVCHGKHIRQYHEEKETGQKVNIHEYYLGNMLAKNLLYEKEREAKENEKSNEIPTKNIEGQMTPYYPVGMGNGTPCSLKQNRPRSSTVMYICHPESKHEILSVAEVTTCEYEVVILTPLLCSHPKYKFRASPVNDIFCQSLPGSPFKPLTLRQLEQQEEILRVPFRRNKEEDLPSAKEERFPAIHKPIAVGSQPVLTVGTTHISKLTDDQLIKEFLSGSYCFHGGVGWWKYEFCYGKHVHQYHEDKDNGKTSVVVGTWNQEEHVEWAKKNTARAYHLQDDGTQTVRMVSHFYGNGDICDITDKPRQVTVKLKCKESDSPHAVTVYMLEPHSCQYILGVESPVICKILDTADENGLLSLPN
UniProt Q8VC03: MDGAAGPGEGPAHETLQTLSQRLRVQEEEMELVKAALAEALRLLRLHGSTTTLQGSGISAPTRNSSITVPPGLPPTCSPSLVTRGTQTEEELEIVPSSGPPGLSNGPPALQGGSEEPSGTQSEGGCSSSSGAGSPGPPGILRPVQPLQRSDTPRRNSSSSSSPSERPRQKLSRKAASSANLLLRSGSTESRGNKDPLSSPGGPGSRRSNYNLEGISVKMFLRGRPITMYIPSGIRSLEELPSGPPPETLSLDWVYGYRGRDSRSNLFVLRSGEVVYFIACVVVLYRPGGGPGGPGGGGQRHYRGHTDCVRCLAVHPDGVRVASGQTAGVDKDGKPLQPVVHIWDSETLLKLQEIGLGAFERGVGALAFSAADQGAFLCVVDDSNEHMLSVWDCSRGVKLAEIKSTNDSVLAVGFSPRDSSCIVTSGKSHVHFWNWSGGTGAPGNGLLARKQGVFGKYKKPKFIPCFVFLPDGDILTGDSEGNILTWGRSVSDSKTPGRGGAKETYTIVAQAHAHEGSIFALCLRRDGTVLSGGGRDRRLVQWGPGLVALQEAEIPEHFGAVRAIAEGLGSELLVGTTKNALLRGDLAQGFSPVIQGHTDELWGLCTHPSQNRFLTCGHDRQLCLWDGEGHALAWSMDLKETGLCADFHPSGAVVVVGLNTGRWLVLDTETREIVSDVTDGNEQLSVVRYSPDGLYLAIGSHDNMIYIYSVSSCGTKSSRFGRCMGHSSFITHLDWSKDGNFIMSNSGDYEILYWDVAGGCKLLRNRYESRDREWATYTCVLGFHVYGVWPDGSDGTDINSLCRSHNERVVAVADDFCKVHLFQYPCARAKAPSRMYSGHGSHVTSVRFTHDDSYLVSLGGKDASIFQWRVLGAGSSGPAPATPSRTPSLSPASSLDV
UniProt Q8VCH5: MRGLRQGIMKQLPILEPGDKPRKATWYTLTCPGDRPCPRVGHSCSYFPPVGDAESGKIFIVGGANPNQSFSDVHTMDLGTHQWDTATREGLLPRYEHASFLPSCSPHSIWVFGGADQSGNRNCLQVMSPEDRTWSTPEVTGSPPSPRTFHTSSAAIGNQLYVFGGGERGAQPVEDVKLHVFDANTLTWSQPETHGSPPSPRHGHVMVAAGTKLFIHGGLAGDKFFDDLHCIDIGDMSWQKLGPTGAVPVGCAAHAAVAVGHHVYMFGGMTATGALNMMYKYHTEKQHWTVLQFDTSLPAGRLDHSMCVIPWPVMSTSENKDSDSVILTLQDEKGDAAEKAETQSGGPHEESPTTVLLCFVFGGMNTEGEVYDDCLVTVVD
UniProt Q8R2Y2: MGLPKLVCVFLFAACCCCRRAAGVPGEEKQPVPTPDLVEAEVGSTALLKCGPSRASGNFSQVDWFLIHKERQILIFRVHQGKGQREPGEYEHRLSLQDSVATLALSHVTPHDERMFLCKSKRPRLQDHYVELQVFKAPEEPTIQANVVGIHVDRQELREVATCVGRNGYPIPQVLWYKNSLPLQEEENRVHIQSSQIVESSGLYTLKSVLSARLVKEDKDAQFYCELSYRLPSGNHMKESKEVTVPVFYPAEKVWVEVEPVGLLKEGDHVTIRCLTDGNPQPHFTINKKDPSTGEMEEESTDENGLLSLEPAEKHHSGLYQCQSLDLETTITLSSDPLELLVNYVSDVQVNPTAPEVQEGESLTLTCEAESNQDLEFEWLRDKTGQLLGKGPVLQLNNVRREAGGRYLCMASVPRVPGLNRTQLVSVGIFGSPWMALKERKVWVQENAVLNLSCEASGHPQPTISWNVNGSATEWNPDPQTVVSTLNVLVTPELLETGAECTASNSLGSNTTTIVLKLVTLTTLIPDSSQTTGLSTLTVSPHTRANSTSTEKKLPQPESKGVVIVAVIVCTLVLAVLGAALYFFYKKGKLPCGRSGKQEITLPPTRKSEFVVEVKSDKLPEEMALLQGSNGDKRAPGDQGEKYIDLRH
UniProt Q8R3P6, whole entry: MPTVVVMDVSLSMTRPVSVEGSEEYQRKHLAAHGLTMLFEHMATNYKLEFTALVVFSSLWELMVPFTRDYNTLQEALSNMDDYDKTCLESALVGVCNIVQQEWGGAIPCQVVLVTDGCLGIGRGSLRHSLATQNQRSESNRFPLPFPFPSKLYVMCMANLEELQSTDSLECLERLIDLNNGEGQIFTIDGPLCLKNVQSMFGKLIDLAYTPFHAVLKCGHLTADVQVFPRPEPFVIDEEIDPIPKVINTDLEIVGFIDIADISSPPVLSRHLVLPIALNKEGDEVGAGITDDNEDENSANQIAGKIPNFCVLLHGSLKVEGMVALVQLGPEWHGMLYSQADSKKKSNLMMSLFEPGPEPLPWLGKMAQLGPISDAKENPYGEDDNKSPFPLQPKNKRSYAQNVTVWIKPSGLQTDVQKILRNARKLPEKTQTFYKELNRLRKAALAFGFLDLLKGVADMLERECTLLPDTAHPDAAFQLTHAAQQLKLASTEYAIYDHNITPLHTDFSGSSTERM
UniProt Q8R4N0: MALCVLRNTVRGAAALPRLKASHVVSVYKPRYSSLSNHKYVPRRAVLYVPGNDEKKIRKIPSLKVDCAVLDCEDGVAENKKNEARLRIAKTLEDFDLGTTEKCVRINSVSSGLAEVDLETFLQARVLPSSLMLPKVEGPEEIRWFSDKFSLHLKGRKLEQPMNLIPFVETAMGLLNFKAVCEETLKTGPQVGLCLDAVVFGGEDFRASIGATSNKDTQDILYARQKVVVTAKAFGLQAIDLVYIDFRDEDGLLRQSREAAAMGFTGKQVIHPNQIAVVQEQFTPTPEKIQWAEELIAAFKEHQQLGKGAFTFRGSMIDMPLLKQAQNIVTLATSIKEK
UniProt Q8VDC0: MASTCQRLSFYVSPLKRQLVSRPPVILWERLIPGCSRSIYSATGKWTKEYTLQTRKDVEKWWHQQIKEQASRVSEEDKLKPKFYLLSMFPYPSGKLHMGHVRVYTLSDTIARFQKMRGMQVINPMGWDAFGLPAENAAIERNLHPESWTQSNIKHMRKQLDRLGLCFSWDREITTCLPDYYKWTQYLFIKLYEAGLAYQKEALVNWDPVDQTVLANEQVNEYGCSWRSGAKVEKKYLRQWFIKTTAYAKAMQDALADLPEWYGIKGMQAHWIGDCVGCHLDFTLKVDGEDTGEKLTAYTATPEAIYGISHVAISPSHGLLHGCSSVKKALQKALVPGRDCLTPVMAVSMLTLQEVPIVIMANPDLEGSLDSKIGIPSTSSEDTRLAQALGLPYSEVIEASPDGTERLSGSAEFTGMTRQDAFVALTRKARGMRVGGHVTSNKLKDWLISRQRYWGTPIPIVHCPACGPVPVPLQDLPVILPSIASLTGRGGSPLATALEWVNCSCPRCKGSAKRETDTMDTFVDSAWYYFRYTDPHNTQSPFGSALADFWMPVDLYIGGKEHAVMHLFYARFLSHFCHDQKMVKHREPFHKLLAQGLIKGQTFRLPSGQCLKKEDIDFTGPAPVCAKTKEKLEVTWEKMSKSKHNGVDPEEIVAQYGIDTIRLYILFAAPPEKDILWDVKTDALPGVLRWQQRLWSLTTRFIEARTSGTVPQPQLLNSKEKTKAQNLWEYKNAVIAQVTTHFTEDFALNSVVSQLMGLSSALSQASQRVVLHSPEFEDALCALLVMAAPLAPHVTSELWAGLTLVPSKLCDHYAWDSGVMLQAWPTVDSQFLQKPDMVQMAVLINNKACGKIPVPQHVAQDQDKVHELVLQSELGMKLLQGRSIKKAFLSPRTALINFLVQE

Each target was assayed with CN[C@@H]1C[C@H]2O[C@@](C)([C@@H]1OC)n1c3ccccc3c3c4c(c5c6ccccc6n2c5c31)C(=O)NC4 [staurosporine] (assay: log2 fold change of tryptic peptide abundance, ligand vs vehicle (limited proteolysis) (log2 ratio); higher = more trypsin-susceptible (destabilized)). Conditions: ligand concentration: 20 uM; sample: mouse liver crude lysate; replicate design: treated separately.

| Target | log2 fold change |
| --- | --- |
| UniProt Q8VBX6 (peptide sequence: AAPFHSER, peptide start residue: 1793) | -0.317 |
| UniProt Q8VC19 (peptide sequence: ASLELQEDVQEMHAVRK, peptide start residue: 128) | -0.143 |
| UniProt Q8R519 (peptide sequence: IAHGFNMRPDLCAQDNPSDPR, peptide start residue: 236) | -0.15 |
| UniProt Q8R5F8 (peptide sequence: LVINTVEPSAVR, peptide start residue: 198) | -0.00814 |
| UniProt Q8VEH8 (peptide sequence: VNIHEYYLGNMLAK, peptide start residue: 144) | -0.275 |
| UniProt Q8VC03 (peptide sequence: VHLFQYPCAR, peptide start residue: 819) | 0.812 |
| UniProt Q8VCH5 (peptide sequence: GAQPVEDVK, peptide start residue: 169) | -0.132 |
| UniProt Q8R2Y2 (peptide sequence: SDKLPEEMALLQGSNGDKR, peptide start residue: 616) | 0.149 |
| UniProt Q8R3P6 (peptide sequence: HLVLPIALNK, peptide start residue: 271) | 0.773 |
| UniProt Q8R4N0 (peptide sequence: GSMIDMPLLK, peptide start residue: 314) | 0.213 |
| UniProt Q8VDC0 (peptide sequence: LKDWLISR, peptide start residue: 443) | 0.384 |

An excerpt of these results, with bars between the fields:
Target | log2 fold change
UniProt Q8R3P6 (peptide sequence: HLVLPIALNK, peptide start residue: 271) | 0.773
UniProt Q8VDC0 (peptide sequence: LKDWLISR, peptide start residue: 443) | 0.384
